No constants are given. Whether binding was seen depends on the method and setting. A result given as binding can be weak or reduced; the word gives no strength. Sequences can lack the tags named with a protein. For part of these data: Binding seen in cells or lysates may run through a third protein.

Experiment [1] deals with T1, Bombyx mori Ago3 fused to the split Venus fragment of pnVW (pNV-Ago3) (Bombyx mori) (UniProt A9ZSZ2).
T1 sequence: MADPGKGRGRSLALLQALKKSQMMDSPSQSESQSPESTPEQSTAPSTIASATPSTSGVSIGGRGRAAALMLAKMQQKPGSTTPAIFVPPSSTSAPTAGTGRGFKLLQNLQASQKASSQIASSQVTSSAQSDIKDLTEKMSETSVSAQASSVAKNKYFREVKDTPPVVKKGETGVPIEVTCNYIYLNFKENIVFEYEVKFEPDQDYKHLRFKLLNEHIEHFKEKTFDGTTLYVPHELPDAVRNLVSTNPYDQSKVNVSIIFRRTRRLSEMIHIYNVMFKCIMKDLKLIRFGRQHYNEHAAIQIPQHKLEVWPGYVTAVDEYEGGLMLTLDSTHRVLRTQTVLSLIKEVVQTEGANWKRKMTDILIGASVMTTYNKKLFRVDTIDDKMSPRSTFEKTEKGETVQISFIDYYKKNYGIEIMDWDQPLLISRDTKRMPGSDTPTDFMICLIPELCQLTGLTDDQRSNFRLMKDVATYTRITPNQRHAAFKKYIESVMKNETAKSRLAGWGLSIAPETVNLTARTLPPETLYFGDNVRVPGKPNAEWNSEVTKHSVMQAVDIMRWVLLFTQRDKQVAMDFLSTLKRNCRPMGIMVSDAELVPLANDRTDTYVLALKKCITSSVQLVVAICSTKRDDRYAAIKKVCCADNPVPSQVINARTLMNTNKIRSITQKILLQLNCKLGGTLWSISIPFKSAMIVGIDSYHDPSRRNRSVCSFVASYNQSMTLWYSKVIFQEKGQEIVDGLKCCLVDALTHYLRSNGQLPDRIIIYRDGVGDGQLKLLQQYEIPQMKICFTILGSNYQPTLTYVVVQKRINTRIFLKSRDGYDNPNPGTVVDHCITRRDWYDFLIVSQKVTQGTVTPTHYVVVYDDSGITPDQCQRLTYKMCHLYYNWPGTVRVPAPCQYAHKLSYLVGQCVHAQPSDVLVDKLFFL
Briefly: split reporter; BiFC in BmN4 cells; 100 ng of each expression plasmid (fusions in pnVW or pcCW) co-transfected; Venus fluorescence by microscopy.

Experiment [2] concerns the target T2, Bombyx mori Siwi fused to the split Venus fragment of pnVW (pNV-Siwi) (Bombyx mori) (UniProt A8D8P8).
T2 sequence: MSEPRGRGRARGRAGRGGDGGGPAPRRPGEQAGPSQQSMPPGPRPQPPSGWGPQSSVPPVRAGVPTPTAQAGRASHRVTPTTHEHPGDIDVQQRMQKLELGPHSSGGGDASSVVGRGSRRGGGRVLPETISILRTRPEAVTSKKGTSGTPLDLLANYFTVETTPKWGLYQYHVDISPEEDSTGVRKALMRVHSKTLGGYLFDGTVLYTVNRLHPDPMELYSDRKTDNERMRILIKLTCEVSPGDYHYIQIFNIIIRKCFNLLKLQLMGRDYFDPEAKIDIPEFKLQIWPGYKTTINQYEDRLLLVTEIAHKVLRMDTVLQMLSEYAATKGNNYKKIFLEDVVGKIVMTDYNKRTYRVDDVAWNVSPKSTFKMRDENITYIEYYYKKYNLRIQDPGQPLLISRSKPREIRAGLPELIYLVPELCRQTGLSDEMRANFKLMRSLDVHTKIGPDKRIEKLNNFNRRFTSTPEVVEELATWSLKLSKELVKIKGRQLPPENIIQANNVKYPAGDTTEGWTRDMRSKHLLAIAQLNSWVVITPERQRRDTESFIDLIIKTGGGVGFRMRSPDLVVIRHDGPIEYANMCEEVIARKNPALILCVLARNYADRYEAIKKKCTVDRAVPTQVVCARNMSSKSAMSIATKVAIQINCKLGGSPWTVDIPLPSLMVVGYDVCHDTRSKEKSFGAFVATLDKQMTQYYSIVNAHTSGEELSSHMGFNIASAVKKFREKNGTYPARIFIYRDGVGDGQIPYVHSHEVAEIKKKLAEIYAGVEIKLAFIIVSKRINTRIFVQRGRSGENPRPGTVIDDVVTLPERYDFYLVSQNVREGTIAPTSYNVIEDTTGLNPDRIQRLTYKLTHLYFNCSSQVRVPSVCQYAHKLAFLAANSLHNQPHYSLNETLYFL
The description is as above.

Experiment [3] has as its target T3, GAL4 DNA-binding domain-fused N-terminal domain of Bombyx mori Ago3 (Ago3NT) (Bombyx mori) (UniProt A9ZSZ2).
T3 sequence: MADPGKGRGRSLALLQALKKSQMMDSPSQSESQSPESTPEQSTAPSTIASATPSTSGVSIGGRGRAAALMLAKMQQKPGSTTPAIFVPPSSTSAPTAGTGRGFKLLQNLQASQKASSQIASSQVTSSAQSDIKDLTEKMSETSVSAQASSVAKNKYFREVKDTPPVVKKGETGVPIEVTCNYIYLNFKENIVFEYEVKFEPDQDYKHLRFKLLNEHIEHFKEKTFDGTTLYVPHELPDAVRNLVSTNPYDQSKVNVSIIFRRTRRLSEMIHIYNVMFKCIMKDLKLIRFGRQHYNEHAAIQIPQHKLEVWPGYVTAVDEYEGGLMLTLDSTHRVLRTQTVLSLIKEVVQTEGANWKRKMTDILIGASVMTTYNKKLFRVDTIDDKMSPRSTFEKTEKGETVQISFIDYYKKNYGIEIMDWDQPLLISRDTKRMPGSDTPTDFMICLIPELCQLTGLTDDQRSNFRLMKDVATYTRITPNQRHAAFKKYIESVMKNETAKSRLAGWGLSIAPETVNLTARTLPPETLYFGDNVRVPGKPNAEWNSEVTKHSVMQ
Briefly: two-hybrid; insect two-hybrid (I2H) in BmN4 cells: GAL4 DBD bait, p65 AD prey, 4xUAS-TATA-Luc reporter, luciferase at 72 h post-transfection, relative to the pUC18 control prey; also in BmN4-SID1 cells 72 h after dsRNA against HP1a, HP1b, Ago3, Siwi, putative piRNA-related genes or GFP (control).

For experiment [4], the target named is T4, GAL4 DNA-binding domain-fused N-terminal domain of Bombyx mori Siwi (SiwiNT) (Bombyx mori) (UniProt A8D8P8).
T4 sequence: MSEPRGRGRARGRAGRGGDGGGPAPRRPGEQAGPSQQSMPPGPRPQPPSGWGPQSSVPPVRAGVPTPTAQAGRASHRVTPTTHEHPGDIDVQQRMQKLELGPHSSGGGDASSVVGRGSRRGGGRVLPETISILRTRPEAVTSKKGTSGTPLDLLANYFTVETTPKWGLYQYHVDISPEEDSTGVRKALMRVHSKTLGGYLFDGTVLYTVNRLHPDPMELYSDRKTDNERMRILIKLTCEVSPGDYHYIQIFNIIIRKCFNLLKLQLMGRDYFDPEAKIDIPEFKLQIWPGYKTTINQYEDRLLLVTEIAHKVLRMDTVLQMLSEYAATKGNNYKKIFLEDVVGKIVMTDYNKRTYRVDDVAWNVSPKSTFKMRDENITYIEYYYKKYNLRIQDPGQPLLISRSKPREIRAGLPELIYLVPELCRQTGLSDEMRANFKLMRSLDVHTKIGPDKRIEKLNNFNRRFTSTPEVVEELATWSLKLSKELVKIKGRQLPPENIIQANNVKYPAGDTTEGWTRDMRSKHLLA
Described as above.

Experiment [5] has as its target T5, TetR-fused Bombyx mori Siwi (Bombyx mori) (UniProt A8D8P8).
T5 sequence: T2 sequence
Briefly: two-hybrid; TetR-based insect two-hybrid in BmN4 cells: TetR bait (no typical NLS), p65 AD prey, 9xtetO-IE2mini(L)-Luc reporter, luciferase at 72 h post-transfection, relative to the pUC18 control prey.

Experiment [6] deals with T6, TetR-fused Bombyx mori Ago3 (Bombyx mori) (UniProt A9ZSZ2).
T6 sequence: T1 sequence
The experiment is described as above.

With “Bombyx mori HP1a fused to the split Cerulean fragment of pcCW (pCC-HP1a)”, the binding entry in experiment [1] and in experiment [2] was “binds weakly” throughout.

Regarding “p65 activation domain-fused Bombyx mori HP1a (pAD-HP1a)”, the binding result in experiment [3] is reported as “binds”; in experiment [4] it was “binds”; in experiment [5], “binds weakly”; in experiment [6] it was “binds weakly”.
